Measurements reported in paper PMC9589885, “A designed antimicrobial peptide with potential ability against methicillin resistant Staphylococcus aureus” (Frontiers in Microbiology, 2022).
Converted amounts (≈) assume the structure as drawn.

System: Candida albicans (ATCC/0331)
Test: microbe, parasite or virus in culture
Format: cell-based
Settings: C. albicans ATCC/0331, broth dilution, 37°C, 16 h
From the text: The standard strain of Staphylococcus aureus (S. aureus, ATCC6538), Escherichia coli (E. coli, ATCC25922), Pseudomonas aeruginosa (P. aeruginosa, ATCC9027), Acinetobacter baumannii (A. baumannii, ATCC19606) and Candida albicans (C. albicans, ATCC/0331) used in this experiment was purchased from the microbial strain collection center of Guangdong Province. The methicillin resistant strain of Staphylococcus aureus (MRSA, SAZ) and clinically isolated antibiotic-resistance strains (SA115775 and SA15192) were clinically isolated from the First Affiliated Hospital of Kunming Medical University. The strains of C. albicans were cultured in 1/3 YM Medium (HB0297-1) + 2/3 RPMI 1640 medium (10-040-CVR, Corning), and other bacterial strains were cultured in Luria-Bertani (LB: 2 g tryptone, 1 g yeast extract, 2 g sodium chloride and 200 ml deionized water) broth.
Briefly, bacteria strains were diluted and adjusted to the concentration of 2 × 10^5 CFU/ml using RPMI 1640 medium. Samples were prepared as a stock solution in saline, and then diluted to a series of concentrations. […] Finally, an absorbance at 600 nm was measured by a microplate reader to estimate bacterial growth. The MIC was defined as the lowest concentration where the bacterial growth could not be detected completely.

OC(Cn1cncn1)(Cn1cncn1)c1ccc(F)cc1F [Fluconazol, fluconazol]
MIC: 1.27 µM (≈ 0.389 µg/mL)
